The assay addresses cynomolgus monkey CCR8 (cynomolgus monkey) (UniProt G7NYJ2). The assay is described as follows: binding to mammalian cells expressing cynomolgus monkey CCR8.

The chains behind the UniProt entries cited, without tags or fusion partners. Where a name states a change or a piece, a line headed by the entry shows the natural chain unless it says otherwise. A line that says so, or that is headed by a name, gives the form on record, which may keep a tag or linker.
cynomolgus monkey CCR8 (G7NYJ2, form named): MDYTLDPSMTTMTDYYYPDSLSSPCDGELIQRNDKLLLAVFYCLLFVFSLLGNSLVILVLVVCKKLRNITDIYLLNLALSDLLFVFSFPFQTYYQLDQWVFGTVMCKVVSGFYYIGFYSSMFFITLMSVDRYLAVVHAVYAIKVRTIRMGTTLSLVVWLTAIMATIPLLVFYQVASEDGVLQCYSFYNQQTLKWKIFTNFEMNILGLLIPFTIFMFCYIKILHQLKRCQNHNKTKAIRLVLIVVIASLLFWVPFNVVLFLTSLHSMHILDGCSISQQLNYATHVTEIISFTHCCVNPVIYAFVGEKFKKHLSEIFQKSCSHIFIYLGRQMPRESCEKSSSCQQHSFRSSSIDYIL

These are yes or no findings as the source states them, for the method shown. Some results given as binding are weak or reduced against the parent protein; the word gives no strength.

B1: ADI-35281 (antibody, V domains shown)
VH: EVKLEQSGGGLVQPKGSLKLSCVASGFTFNAYAMNWVRQAPGQGLEWVARIRSKSNNYATYYAASVKDRFTISRDDSQSILYLQMNNLKTEDTAMYYCVRQSYGNSNYAMDYWGQGTTVTVSS
VL: DIQLTQSPPSVPVTPGESVSISCRSSKSLLHSNGNTYLYWFLQRPGQSPQLLIYRKSNLASGVPDRFSGSGSGTAFTLRISRVEAEDVGVYYCMQHLEYPFTFGGGTKLEIK
Take B1: the binding entry was “binds”.

B2: ADI-46663 (antibody, V domains shown)
VH: EVQLVESGGGLVQPGGSLRLSCAASGFTFNAYAMNWVRQAPGKGLEWVARIRSKSNNYATYYADSVKDRFTISRDDSKNSLYLQMNSLKTEDTAVYYCVRQSYGNSNYAMDYWGQGTTVTVSS
VL: DIVMTQSPLSLPVTPGEPASISCRSSKSLLHSNGNTYLYWYLQKPGQSPQLLIYRMSNLASGVPDRFSGSGSGTDFTLKISRVEAEDVGVYYCMQHLEYPFTFGGGTKVEIK
For the molecule B2, the binding entry was “binds”.

B3: ADI-40327 (antibody, V domains shown)
VH: QVQLQESGPGLVKPSETLSLTCAVSGYSISSGYYWGWIRQPPGKGLEWIGSIYHSGNTYYRPSLKSRVTISVDTSKNQFSLKLSSVTAADTAVYYCARGKGGSWTAFGPWGQGTLVTVSS
VL: DIQMTQSPSSLSASVGDRVTITCRASQSISSFLNWYQQKPGKAPKLLISAASSLQSGVPSRFSGSGSGTDFTLTISSLQPEDFATYYCQQGHSTPPTFGGGTKVEIK
On to B3, for which the binding entry is recorded as “binds”.

(Values after patent US20250019449A1.)
